Measurements: patent publication US20230151376A1, “ORGANELLE TRANSFORMANT SCREENING METHOD” (NATIONAL UNIVERSITY CORPORATION KOBE UNIVERSITY, priority 2020, published 2023)
Some of these results come from one statement about several compounds together.

Test system: Arabidopsis thaliana cultured cells 87T
Assay: Concerted sensitivity test on herbicide and antibiotic in Arabidopsis thaliana cultured cells
Type: cell-based
Conditions: herbicide alone; tested 0-100 μM; growth checked on days 3, 7, 15
Experimental: Arabidopsis thaliana cultured cells 87T were used in the experiment. Media comprising different concentrations of a group of herbicides and spectinomycin using a redifferentiation medium (Q. Yu. et al. Plant Physiol. 2017. 175(1). 186-193) as the base were added to each well of a 24-well plate. Specifically, a plate with varying concentrations of the group of herbicides of 0, 0.1, 1, 10, 50, and 100 μM in the direction of the X-axis of the plate and varying concentrations of an antibiotic spectinomycin of 0, 1, 10, and 100 μg/mL in the direction of the y-axis was prepared (FIG. 9A). Pinoxaden, tepraloxydim, tralkoxydim, cyhalofop butyl, and haloxyfop were used as the group of herbicides in each plate. 100 μL of cultured cells was added to each well and cultured under light-dark conditions in an artificial climate incubator. On days 3, 7, and 15 after culture, the growth status was checked to study the concerted sensitivity of a herbicide and antibiotic. • Results

Compound: CC(Oc1ccc(Oc2ncc(C(F)(F)F)cc2Cl)cc1)C(=O)O (stereo not shown) [haloxyfop]
- herbicide concentration at which inhibition of growth was observed: ≥ 50 µM
